Screening data, single-dose tests

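Assay of Toxoplasma gondii numbers, read through their beta-galactosidase reporter with a colour substrate. Compounds at 50 µM. Higher reads as fewer parasites (inferred from which compounds were picked for retests). Size under these conditions: about 18,000 compounds, about 170 of them at 50% or above in at least one test.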

Values are the deposited “Percent Effect”, in %.
How 0% and 100% were set is not recorded. Most values in the screen are low, and negative values occur.
Compounds were drawn at random from those tested, without regard to their results.

| SMILES | effect |
|---|---|
| `COCCC1CN(C(=O)c2ccc(C)c(F)c2)CCO1` (centres undefined) | -2.005% |
| `C[C@H](N)CNCc1cc(O)c2cc(F)ccc2n1` | 16.08% |
| `Cc1nnc(CNC(=O)COc2ccc(F)cc2F)o1` | -12.31% |
| `O=C(Cc1ccncc1)N1CCNCC1` | 4.931% |
| `CC1Cc2ccccc2N1CCN` (centres undefined) | -3.825% |
| `CN(Cc1ccccc1)C(=O)CCN` | 20.89% |
| `NC(=O)c1cccc(CNCc2ccccc2)c1` | -2.871% |
| `CCC(N)C(=O)N1CCN(c2ccncc2Cl)CC1` (centres undefined) | 0.3763% |
| `CN[C@@H]1CCO[C@H]1c1cccnc1` | -18.11% |
| `COc1cccc(CCC(=O)N2CCCC2)c1` | 7.299% |
| `CN(C)S(=O)(=O)NC1CCCOc2c(Cl)cccc21` (centres undefined) | -4.544% |
| `CN(C)c1cc(C(=O)Nc2ccccc2F)ccn1` | 6.618% |
| `Cc1ccc(Br)c(NCC(=O)N2CCOCC2)c1` | 6.776% |
| `Cc1ccc(NC(=O)c2cc[nH]n2)cc1C(=O)N(C)C` | 3.269% |
| `NCc1cccc(-c2cccnc2)c1` | -3.666% |
| `COC(=O)N1CCC(NC(C)CCn2cccn2)CC1` (centres undefined) | -11.76% |
| `O=C(N1CCNCC1)C1(c2ccc(F)cc2F)CCC1` | -3.67% |
| `COCCCC1(CO)CCCN(Cc2cncnc2)C1` (centres undefined) | -20.5% |
| `N#Cc1cccc(CSc2nnc(N)s2)c1` | 0.5435% |
| `N#Cc1ccc(S(=O)(=O)CC(N)=O)c(Cl)c1` | -0.7763% |
| `Cc1ccc(CNC(=O)C2CCCN(C(N)=O)C2)s1` (centres undefined) | 0.7085% |
| `N#CCCCN1CCCC1C(=O)N1CCSCC1` (centres undefined) | -0.6809% |
| `CCCc1cc(N2CCNC(=O)C2)n2nccc2n1` | -7.787% |
| `CCSC1(CNC(=O)c2ccc[nH]2)CCOCC1` | 15.57% |
| `C[C@@H](O)c1ccc(S(C)(=O)=O)cc1` | 27.93% |
| `COc1cccc(N2CCC(N)CC2)c1` | -27.67% |
| `NCc1ccccc1CN1CCC(O)CC1` | 18.08% |
| `CCc1ccc(C(=O)NC2CCS(=O)(=O)C2)o1` (centres undefined) | -6.579% |
| `CCCNC(=O)c1ccc(CN2CCCC2)cc1` | 0.8478% |
| `O=C(Cc1cccc(O)c1)NCC1CCNCC1` | -0.8224% |
| `Cc1cc(C)cc(NC(=O)CCN2CCN(C)CC2)c1` | -0.9336% |
| `COCC1CN(c2ccccn2)CCO1` (centres undefined) | -0.3953% |
| `NS(=O)(=O)c1ccc(Sc2ccc(F)cc2F)nc1` | -8.713% |
| `NC(=O)NC(=O)CCSc1ncnc2ccsc12` | 8.396% |
| `CCN(CC)C(=O)CCC(=O)NCc1c[nH]nc1C` | 5.103% |
| `CS(=O)(=O)N1CCC(N)C1` (centres undefined) | 15.91% |
| `NC(=O)c1cncc(-c2ccc(F)cc2Cl)c1` | 3.051% |
| `Cc1ccc(NC(=O)CNCCN2CCOCC2)cc1` | -5.851% |
| `Cc1nonc1CC(=O)NC(C)c1nncn1C(C)C` (centres undefined) | -3.643% |
| `Cn1cncc1CN` | 6.742% |
| `CC(C)c1nccn1CC(=O)NC(=O)NC1CC1` | 3.349% |
| `Cc1ccc(CNCc2cc[nH]n2)c(N2CCCC2)n1` | 5.982% |
| `NCc1noc(-c2ccsc2)n1` | 11.29% |
| `Cc1cc(NC(=O)CN2CCC(C(N)=O)CC2)n(C)n1` | -4.757% |
| `Cc1ccc(CN(C)CC(N)=O)o1` | -7.929% |
| `CNC(=O)COc1cccc(OCC2CC2)c1` | -6.714% |
| `CCOCC(=O)N[C@@H]1COCC[C@@H]1OCCN(C)C` | 2.706% |
| `O=C(NCCC(=O)N1CCCC1)Nc1nncs1` | -5.364% |
| `CN(C(=O)CSCCN1CCOCC1)C1CC1` | 19.83% |
| `O=C(COc1ccccc1)N[C@H]1C[C@@H]2OCC[C@H]12` | 16.87% |
| `Cc1oc(-c2ccccc2F)nc1C(=O)N(C)C` | -3.464% |
| `CCOC(=O)CN(C)c1c(C)c(C)nc2ncnn12` | 1.732% |
| `NCCCn1cc(Cl)cn1` | 2.204% |
| `COCCCN(C)Cc1ccc2c(c1)OCO2` | -3.994% |
| `CNS(=O)(=O)c1ccc(C(=O)Nc2ccccc2C)o1` | -2.599% |
| `Cc1cc(NC(=O)c2ccc(F)cc2)[nH]n1` | -8.221% |
| `CC(C)n1cnnc1CN1CCN(c2nc[nH]n2)CC1` | 14.64% |
| `Cc1nsc(NCc2cncs2)n1` | 0.1394% |
| `COc1cc(F)ccc1[C@@H](C)O` | 28.98% |
| `CCOc1ncccc1CNC(=O)c1[nH]ncc1Br` | -19.48% |
| `Cn1nnnc1SCCNCc1ccc(F)cc1` | 12.97% |
| `O=C(c1cc(C2CC2)n[nH]1)N1CCCC(O)(CO)CC1` (centres undefined) | 4.237% |
| `CNC(=O)CCN1CCCSCC1` | -4.559% |
| `Cc1cccc(NC(=O)N(C)CC2CCCOC2)n1` (centres undefined) | 3.512% |
| `Cc1nnc(SCCNC(=O)CC2C=CS(=O)(=O)C2)s1` (centres undefined) | 45.65% |
| `CCCOCCNC(=O)c1cc(C(F)(F)F)n[nH]1` | -15.92% |
| `C=C(C)CNC(=O)NCCC(=O)NC1CCCC1` | -4.549% |
| `COc1ccc(CNC(=O)CC2CCNC2)c(OC)c1` (centres undefined) | -8.79% |
| `Cc1cc(CN(C)C(=O)C(C)n2cncn2)no1` (centres undefined) | -0.9109% |
| `O=C(CSc1ccncc1)NCCN1CCCC1=O` | -3.3% |
| `CC(C)(C)c1cnc(CN2CCOCC2C(N)=O)o1` (centres undefined) | -9.385% |
| `Cc1cccc(C)c1NCC(=O)N1CC[C@H](O)C1` | 3.969% |
| `O=c1[nH]c(-c2ccncc2)nc2c1CCC2` | -3.788% |
| `O=C(N[C@@H]1CCOC[C@H]1O)c1ccncc1` | -0.1422% |
| `CC(C)(CN)N1CCc2ccccc2C1` | 5.04% |
| `CC(C)(C)N(CCS(C)(=O)=O)C(=O)c1ccncc1F` | -7.023% |
| `Cc1cc(C)c(C)c(C(=O)N2CC(O)C2)c1C` | -4.592% |
| `CC(C)Oc1cc(N)ccn1` | -11.9% |
| `CC(C)(C)OC(=O)NCC1CC(C(N)=O)=NO1` (centres undefined) | 54.53% |
| `O=C1CCC2(CNC(=O)c3ccco3)CCCC=C2N1` (centres undefined) | 1.109% |
| `NCC(Cc1ccccc1Cl)C(N)=O` (centres undefined) | 21.66% |
| `CCC(=O)NC1CCCN(Cc2noc(C)n2)C1` (centres undefined) | 11.52% |
| `CC(C)(C)S(=O)(=O)CCNC(=O)CCc1ccccc1` | 4.248% |
| `CCNc1nc2c([nH]1)c(=O)n(C)c(=O)n2C` | -1.214% |
| `Cc1c(CNC(=O)COc2ccccc2)cnn1C` | -27.16% |
| `CN(CC(N)=O)CC1CCCCC1` | 33.69% |
| `CC(=O)Nc1ccc(CC(=O)N2CCOCC2)cc1` | -0.08172% |
| `CC(C)N(CCS(C)(=O)=O)C(=O)NC1CCCCC1` | 2.466% |
| `CCCNS(=O)(=O)c1ccc(C(N)=O)cc1` | 25.79% |

The first 7 entries again:

SMILES,effect
COCCC1CN(C(=O)c2ccc(C)c(F)c2)CCO1 (centres undefined),-2.005%
C[C@H](N)CNCc1cc(O)c2cc(F)ccc2n1,16.08%
Cc1nnc(CNC(=O)COc2ccc(F)cc2F)o1,-12.31%
O=C(Cc1ccncc1)N1CCNCC1,4.931%
CC1Cc2ccccc2N1CCN (centres undefined),-3.825%
CN(Cc1ccccc1)C(=O)CCN,20.89%
NC(=O)c1cccc(CNCc2ccccc2)c1,-2.871%

Data taken from ChEMBL document CHEMBL3988442, “University of Dundee, Small-Polar-MMV Screening Library” (2021).